Test results: the supplement of paper PMC10338343
± gives the standard deviation. The entries are a selection whose mix differs from that of the whole data set. The uncertainty is large for many entries.

tested on: MILI (PIWIL2) piRISC loaded with L1MC piRNA (26 nt); assay: pre-steady-state target cleavage rate (min^-1); MIWI and MILI are mouse PIWI proteins and EfPiwi is from a freshwater sponge; tags in brackets are library labels; higher = faster piRNA-guided slicing of the target; settings: guide: L1MC piRNA 5'p-UAACUAAAUACUAUGCAAGCUGUAGG; auxiliary factor: 500 nM mouse GTSF1
Experimental: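 Cleave-'n-Seq: a library of target RNAs (target site embedded in constant flanks, ACAGCATTCCGCGTTAGTGATATCCG... 5' flank; DNA-blocked outside the site) at 0.1 nM was incubated with 1 nM active mouse MILI or MIWI piRISC (synthetic 5'-monophosphorylated piRNA guide) with or without 500 nM mouse GTSF1 at 33 °C for 1 min to 16 h. Uncleaved targets were sequenced and normalised to non-target controls, and the pooled three trials were fitted to a burst-and-steady-state model to give the pre-steady-state cleavage rate (min^-1; k3 is constrained to at most 1e-4). Sequence is the target site only; target names encode pairing extent (gX:gY) and contiguous / 1-mismatch / 2-mismatch / bulge geometry. Fits with R² ≤ 0 are excluded.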

Sequence | pre-steady-state target cleavage rate
UCCUGGAUGUCCUUGCAUAGUAUUUAGGUUA | 0.0768 ± 0.019
UCCUGGAUGUGCUUGCAUAGAUAUUAGAAA | 0.000408 ± 0.018
UCCUGGAUGUCGAAGGAUAGUAUUUAGUUA | 0.00242 ± 0.0026
UCCUGGUACAGCUUGCAUAGUAUUUACAAA | 0.0693 ± 0.017
UCCUGGAUGUCGAUAGCAUAGUAUUUAGUUA | 0.0459 ± 0.014
UCCUGGAUGUCCAUGCAUAGUAUUUAGAUA | 0.0163 ± 0.0062
UCCUGGAUGUCGAAGCAUAGAUUUAGUUA | 0.000952 ± 0.0094
UCCUGGAUCAGCUAGCAUAGUAUUUAGAAA | 0.139 ± 0.016
UCCUGGUACAGCAUGCAUAGUAUUUUGUUA | 0.11 ± 0.022
UCCUGGAUGUGCUUGCAUAGUAUUUAAUUA | 0.0357 ± 0.011
UCCUGGUACAGCUUGCAAAGUAUUAAGUUA | 0.0919 ± 0.018
UCCUGGUUGAGCUUGCAUAGUAUUUAGAAA | 0.0925 ± 0.026

same assay, conditions: guide: L1MC piRNA 5'p-UAACUAAAUACUAUGCAAGCUGUAGG; auxiliary factor: none (no GTSF1)

Sequence | pre-steady-state target cleavage rate
UCCUGGAUGUGCUUGGUAAGUAUUUAGAAA | 0.000491 ± 0.012
UCCUGGAUGUCCUUGCAUAGUAUUUAGGUUA | 0.00311 ± 0.0038
UCCUGGAUGUGCUUGCAUAGAUAUUAGAAA | 0.000305 ± 0.015
UCCUGGAUGUCGAAGGAUAGUAUUUAGUUA | 0.00014 ± 0.015
UCCUGGUACAGCUUGCAUAGUAUUUACAAA | 0.00152 ± 0.0036
UCCUGGAUGUCGUUGCAUUGUAUUAAGUUA | 0.000176 ± 0.036
UCCUCCUACAGCUUGCAUAGUUAAUAGUUA | 0.0019 ± 0.0037
UCCUGGAUGUCGAUAGCAUAGUAUUUAGUUA | 0.00341 ± 0.0026
UCCUGGAUCAGCUUGCAUAUAUUUAGUUA | 0.00151 ± 0.0048
UCCUGGAUGUGCUUGCAUAGUAUAUAGUAA | 0.00105 ± 0.0068
UCCUGGAUGUCCAUGCAUAGUAUUUAGAUA | 0.00223 ± 0.0036
UCCUGGAUGUCGAAGCAUAGAUUUAGUUA | 0.00121 ± 0.0046
UCCUGGAUCAGCUAGCAUAGUAUUUAGAAA | 0.00177 ± 0.0036
UCCUGGUACAGCUUGCAUACUAUUUACUUA | 0.00287 ± 0.0037
UCCUGGAUGAGCUUCCAUAGUAUUUACUUA | 0.000382 ± 0.017
UCCUGGAUGAGCUUGCAUAGUAUUUAGGUA | 0.0021 ± 0.0051
UCCUGGUACUCCUUGCAUAGUAUUUUCAAA | 0.00151 ± 0.0044
UCCUGGUACAGCAUGCAUAGUAUUUUGUUA | 0.00364 ± 0.0034
UCCUGGAUGUGCUUGCAUUGUAUUUAGAUA | 0.00159 ± 0.005
UCCUGGAUGUCGAACGUAUCUAUUUGUUA | 0.000138 ± 0.022
UCCUGGAUGUGCUUGCAUAGUAUUUAAUUA | 0.00315 ± 0.003
UCCUGGAUGUCGAAGCAUAGUAAUUUGUUA | 0.000586 ± 0.0081
UCCUGGUACAGCUUGCAUAGUAUAAUGUAA | 0.000951 ± 0.0075
UCCUGCUACAGCUUGCAUAGUAAUUUCAAA | 0.00086 ± 0.0072
UCCUCCUACAGGUUGCAUAGUAUUUACAAA | 0.000929 ± 0.0056
UCCUGGUACAGCUUGCAAAGUAUUAAGUUA | 0.00406 ± 0.0027
UCCUGGUUGAGCUUGCAUAGUAUUUAGAAA | 0.00274 ± 0.0031
